Experimental data taken from PMC8639986.
Results are given in words; binding and its absence hold for the method and conditions named. For part of these data: Binding seen in cells or lysates may run through a third protein. Some results given as binding are weak or reduced against the parent protein; the word gives no strength. Blank lines part the entries; values can stand above or below the substance they belong to.

Chains of the proteins cited; added tags and fusions are not shown. Lines headed by an entry give the natural chain unless they say otherwise; changes in a name come on top. A line that says so, or that is headed by a name, gives the form on record, which may keep a tag or linker. Residues count along the entry.
EphA2 wild-type intracellular region (residues S570-I976) (P29317, residues 570-976): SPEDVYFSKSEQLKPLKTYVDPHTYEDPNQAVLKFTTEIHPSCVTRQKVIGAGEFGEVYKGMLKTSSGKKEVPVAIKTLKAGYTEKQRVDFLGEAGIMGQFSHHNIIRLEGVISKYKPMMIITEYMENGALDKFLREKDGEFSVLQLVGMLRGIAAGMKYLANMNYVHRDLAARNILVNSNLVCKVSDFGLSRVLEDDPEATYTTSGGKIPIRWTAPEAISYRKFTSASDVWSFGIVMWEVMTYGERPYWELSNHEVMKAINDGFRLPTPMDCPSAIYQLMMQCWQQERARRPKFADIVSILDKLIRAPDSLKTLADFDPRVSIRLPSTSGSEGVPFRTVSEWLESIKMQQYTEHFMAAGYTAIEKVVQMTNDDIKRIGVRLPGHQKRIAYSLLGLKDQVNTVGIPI
full-length EphA2 S892A labeled at the C-terminus with mTurquoise or EYFP (P29317, form named): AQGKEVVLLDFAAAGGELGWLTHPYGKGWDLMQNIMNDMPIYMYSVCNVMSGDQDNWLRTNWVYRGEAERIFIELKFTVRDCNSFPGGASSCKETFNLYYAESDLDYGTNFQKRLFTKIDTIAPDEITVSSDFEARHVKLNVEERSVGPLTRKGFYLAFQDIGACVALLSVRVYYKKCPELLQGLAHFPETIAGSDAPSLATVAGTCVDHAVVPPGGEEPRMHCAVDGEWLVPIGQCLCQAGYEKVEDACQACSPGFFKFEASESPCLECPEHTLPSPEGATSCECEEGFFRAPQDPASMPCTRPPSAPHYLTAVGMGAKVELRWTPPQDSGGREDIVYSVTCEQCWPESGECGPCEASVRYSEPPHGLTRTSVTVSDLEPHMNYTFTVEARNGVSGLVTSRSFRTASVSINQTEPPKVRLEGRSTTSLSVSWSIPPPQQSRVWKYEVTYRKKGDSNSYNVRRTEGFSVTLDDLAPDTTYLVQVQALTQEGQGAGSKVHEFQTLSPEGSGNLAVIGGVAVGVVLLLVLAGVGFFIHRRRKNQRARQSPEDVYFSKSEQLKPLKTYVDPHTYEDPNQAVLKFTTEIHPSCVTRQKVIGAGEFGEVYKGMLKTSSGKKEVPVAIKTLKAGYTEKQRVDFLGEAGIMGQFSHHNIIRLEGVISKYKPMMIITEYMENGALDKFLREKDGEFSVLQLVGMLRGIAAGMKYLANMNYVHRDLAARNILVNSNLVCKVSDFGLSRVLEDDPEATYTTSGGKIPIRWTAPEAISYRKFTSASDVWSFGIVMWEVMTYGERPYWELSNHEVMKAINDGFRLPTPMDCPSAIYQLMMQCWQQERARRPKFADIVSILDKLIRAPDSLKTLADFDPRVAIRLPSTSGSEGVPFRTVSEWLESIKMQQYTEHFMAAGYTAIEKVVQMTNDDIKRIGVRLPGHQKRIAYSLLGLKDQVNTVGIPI
full-length EphA2 3E (T898E/S899E/S901E) labeled at the C-terminus with mTurquoise or EYFP (P29317, form named): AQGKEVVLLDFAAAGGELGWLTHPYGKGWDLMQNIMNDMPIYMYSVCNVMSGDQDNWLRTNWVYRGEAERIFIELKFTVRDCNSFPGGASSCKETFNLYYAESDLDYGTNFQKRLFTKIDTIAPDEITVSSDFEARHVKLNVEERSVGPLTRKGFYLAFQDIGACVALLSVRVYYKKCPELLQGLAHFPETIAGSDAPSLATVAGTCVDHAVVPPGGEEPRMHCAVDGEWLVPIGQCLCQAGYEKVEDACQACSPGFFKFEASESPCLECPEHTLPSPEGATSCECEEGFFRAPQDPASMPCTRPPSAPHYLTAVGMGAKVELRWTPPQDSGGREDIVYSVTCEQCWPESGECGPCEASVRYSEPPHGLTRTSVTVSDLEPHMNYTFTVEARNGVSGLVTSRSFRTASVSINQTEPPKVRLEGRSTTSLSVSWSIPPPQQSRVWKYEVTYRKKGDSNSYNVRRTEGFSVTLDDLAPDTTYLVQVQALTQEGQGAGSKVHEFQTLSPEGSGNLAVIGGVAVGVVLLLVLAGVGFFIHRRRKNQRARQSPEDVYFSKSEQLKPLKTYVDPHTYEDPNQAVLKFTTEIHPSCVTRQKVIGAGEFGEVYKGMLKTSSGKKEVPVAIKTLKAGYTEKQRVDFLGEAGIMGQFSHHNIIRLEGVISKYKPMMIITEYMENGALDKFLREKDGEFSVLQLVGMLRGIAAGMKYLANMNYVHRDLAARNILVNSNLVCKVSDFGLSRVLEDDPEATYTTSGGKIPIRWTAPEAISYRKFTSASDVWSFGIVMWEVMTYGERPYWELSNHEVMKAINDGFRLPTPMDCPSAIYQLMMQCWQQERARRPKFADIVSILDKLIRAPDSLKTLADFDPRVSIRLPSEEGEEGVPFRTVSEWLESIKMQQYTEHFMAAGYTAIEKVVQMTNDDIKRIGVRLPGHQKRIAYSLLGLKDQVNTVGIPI
full-length EphA2 S897A labeled at the C-terminus with mTurquoise or EYFP (P29317, form named): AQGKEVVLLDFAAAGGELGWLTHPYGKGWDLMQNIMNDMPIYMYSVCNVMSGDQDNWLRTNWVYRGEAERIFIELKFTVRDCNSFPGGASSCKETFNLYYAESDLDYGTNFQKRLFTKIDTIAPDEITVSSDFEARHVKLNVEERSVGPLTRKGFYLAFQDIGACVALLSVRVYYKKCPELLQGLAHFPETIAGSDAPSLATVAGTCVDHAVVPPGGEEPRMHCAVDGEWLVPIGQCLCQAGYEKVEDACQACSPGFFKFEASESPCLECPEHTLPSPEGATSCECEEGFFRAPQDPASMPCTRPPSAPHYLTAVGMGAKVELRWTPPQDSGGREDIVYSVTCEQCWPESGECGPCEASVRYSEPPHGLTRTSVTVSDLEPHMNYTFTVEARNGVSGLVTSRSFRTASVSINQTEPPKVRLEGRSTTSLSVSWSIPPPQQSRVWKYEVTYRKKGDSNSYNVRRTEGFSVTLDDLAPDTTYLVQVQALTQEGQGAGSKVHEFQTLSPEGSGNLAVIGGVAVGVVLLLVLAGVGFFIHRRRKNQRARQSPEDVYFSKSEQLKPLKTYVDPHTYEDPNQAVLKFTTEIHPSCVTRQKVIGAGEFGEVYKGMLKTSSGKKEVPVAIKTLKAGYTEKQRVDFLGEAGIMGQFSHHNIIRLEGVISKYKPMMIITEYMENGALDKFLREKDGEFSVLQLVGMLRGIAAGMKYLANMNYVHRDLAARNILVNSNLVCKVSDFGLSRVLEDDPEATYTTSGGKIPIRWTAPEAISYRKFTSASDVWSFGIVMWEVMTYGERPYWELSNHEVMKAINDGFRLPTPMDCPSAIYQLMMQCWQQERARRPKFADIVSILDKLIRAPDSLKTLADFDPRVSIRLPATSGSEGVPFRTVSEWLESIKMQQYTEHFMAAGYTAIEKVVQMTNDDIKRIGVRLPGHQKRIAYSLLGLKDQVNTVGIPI
full-length EphA2 S892E labeled at the C-terminus with mTurquoise or EYFP (P29317, form named): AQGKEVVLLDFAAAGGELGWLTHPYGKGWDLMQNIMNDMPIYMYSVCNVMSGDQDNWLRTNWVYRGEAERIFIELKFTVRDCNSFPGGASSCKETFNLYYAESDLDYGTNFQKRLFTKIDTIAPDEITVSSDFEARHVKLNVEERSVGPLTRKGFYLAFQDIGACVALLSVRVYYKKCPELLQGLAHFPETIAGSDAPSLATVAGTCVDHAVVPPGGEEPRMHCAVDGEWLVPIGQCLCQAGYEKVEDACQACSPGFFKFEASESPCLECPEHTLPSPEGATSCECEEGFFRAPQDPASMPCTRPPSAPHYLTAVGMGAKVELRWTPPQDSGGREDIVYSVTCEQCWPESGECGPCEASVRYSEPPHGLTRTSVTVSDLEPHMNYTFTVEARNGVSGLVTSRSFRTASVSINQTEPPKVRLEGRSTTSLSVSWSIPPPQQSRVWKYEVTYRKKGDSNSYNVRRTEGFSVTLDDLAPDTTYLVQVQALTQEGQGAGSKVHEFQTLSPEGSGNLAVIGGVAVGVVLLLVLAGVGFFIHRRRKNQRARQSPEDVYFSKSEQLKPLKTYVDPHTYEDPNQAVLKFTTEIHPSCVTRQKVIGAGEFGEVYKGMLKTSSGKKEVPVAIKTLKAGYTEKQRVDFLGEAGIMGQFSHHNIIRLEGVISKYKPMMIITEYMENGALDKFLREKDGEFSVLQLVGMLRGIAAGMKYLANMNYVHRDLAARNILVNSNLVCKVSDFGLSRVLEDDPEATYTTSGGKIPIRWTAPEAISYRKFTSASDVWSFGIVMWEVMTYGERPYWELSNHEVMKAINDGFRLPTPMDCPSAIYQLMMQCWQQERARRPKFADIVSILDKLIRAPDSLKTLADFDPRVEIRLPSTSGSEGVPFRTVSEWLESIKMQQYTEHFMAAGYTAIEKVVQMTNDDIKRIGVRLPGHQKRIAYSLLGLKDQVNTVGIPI
full-length EphA2 5A (S892A/S897A/T898A/S899A/S901A) labeled at the C-terminus with mTurquoise or EYFP (P29317, form named): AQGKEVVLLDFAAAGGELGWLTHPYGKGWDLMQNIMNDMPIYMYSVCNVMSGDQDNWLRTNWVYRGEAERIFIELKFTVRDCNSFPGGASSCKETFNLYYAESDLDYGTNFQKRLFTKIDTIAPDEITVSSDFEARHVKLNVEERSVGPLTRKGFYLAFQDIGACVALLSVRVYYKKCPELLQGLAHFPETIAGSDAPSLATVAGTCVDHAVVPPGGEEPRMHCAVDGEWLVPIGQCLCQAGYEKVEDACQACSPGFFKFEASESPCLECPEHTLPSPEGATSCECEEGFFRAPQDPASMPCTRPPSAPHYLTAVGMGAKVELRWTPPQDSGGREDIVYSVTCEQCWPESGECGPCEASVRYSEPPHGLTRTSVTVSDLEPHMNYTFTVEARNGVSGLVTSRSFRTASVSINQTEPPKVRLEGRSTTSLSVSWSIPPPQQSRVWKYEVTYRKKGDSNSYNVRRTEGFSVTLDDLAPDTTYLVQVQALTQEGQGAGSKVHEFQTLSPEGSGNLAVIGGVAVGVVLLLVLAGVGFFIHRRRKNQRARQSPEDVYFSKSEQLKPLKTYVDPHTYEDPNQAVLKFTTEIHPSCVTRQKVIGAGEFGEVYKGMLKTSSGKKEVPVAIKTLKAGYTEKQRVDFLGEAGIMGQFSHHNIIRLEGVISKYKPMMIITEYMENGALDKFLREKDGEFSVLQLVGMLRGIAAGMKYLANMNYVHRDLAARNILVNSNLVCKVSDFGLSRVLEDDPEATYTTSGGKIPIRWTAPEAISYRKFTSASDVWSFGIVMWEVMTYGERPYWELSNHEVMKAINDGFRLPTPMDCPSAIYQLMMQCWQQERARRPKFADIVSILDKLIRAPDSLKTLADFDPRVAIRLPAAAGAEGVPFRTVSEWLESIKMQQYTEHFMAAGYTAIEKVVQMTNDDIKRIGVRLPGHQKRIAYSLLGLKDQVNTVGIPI
full-length EphA2 S897E labeled at the C-terminus with mTurquoise or EYFP (P29317, form named): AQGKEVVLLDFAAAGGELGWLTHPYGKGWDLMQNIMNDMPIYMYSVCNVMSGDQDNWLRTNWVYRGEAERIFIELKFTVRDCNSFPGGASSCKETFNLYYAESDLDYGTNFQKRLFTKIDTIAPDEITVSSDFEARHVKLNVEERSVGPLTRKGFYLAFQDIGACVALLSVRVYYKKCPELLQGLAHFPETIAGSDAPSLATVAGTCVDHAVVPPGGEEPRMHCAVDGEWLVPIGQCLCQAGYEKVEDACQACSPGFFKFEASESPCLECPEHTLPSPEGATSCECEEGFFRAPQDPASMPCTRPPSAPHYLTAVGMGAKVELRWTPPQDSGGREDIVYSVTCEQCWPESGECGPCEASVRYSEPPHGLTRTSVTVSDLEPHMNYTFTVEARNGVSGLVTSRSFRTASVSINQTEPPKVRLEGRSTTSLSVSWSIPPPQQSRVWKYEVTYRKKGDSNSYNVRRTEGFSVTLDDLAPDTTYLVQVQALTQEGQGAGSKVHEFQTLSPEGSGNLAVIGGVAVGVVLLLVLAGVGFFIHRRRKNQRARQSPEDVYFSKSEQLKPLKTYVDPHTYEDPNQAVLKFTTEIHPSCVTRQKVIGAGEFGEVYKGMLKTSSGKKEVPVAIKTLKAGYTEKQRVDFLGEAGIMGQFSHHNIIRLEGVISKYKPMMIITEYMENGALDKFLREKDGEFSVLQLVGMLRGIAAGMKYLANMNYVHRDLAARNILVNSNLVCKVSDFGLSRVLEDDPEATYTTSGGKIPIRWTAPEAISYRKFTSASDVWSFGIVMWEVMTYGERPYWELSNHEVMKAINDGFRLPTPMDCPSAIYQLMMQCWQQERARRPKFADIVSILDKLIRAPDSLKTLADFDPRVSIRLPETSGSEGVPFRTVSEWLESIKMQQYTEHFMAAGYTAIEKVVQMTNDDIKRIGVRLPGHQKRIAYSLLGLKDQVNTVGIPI

Experiments:
[1] = target: EphA2 wild-type intracellular region (residues S570-I976) (human) (UniProt P29317); test: SEC-MALS; Superdex 200 increase 10/300 in 20 mM HEPES pH 7.0, 150 mM NaCl; 100 µl at 3 mg/ml injected; both purified
[2] = target: full-length EphA2 S892A labeled at the C-terminus with mTurquoise or EYFP (human) (UniProt P29317); test: FRET or BRET; FSI-FRET between EphA2-mTurquoise and EphA2-EYFP in the plasma membrane of live HEK293T cells, no ligand, serum-starved, hypo-osmotic swelling; dimerization curves fitted to a monomer-dimer model (dimer to monomers)
[3] = target: full-length EphA2 3E (T898E/S899E/S901E) labeled at the C-terminus with mTurquoise or EYFP (human) (UniProt P29317); test: as above
[4] = target: full-length EphA2 S897A labeled at the C-terminus with mTurquoise or EYFP (human) (UniProt P29317); test: as above
[5] = target: full-length EphA2 S892E labeled at the C-terminus with mTurquoise or EYFP (human) (UniProt P29317); test: as above
[6] = target: full-length EphA2 5A (S892A/S897A/T898A/S899A/S901A) labeled at the C-terminus with mTurquoise or EYFP (human) (UniProt P29317); test: as above
[7] = target: full-length EphA2 S897E labeled at the C-terminus with mTurquoise or EYFP (human) (UniProt P29317); test: as above
[8] = target: full-length EphA2 ASAAA (S892A/T898A/S899A/S901A) labeled at the C-terminus with mTurquoise or EYFP (human) (UniProt P29317); test: as above
[9] = target: full-length EphA2 5E (S892E/S897E/T898E/S899E/S901E) labeled at the C-terminus with mTurquoise or EYFP (human) (UniProt P29317); test: as above

Substance: full-length EphA2 3E (T898E/S899E/S901E) labeled at the C-terminus with mTurquoise or EYFP (from UniProt P29317 24-976) (receptor)
binding [3]: binds

Substance: full-length EphA2 S897A labeled at the C-terminus with mTurquoise or EYFP (from UniProt P29317 24-976) (receptor)
binding [4]: binds

Substance: full-length EphA2 S892E labeled at the C-terminus with mTurquoise or EYFP (from UniProt P29317 24-976) (receptor)
binding [5]: binds

Substance: full-length EphA2 5E (S892E/S897E/T898E/S899E/S901E) labeled at the C-terminus with mTurquoise or EYFP (from UniProt P29317 24-976) (receptor)
binding [9]: binds

The remaining lines, values ahead:

binding [1]: no binding (tested: 3 mg/ml)
Substance: EphA2 wild-type intracellular region (residues S570-I976) (from UniProt P29317 570-976) (domain or fragment)

binding [2]: binds
Substance: full-length EphA2 S892A labeled at the C-terminus with mTurquoise or EYFP (from UniProt P29317 24-976) (receptor)

binding [6]: binds
Substance: full-length EphA2 5A (S892A/S897A/T898A/S899A/S901A) labeled at the C-terminus with mTurquoise or EYFP (from UniProt P29317 24-976) (receptor)

binding [7]: binds
Substance: full-length EphA2 S897E labeled at the C-terminus with mTurquoise or EYFP (from UniProt P29317 24-976) (receptor)

binding [8]: binds
Substance: full-length EphA2 ASAAA (S892A/T898A/S899A/S901A) labeled at the C-terminus with mTurquoise or EYFP (from UniProt P29317 24-976) (receptor)
